Measured values: paper PMC12463039
Results are given in words; binding and its absence hold for the method and conditions named. Binding seen in cells or lysates may run through a third protein. Some binding calls cover weakened binding; strength is not graded here.

Protein sequences, listed by entry. Tags and fused reporters are not part of them.
UniProt P06733: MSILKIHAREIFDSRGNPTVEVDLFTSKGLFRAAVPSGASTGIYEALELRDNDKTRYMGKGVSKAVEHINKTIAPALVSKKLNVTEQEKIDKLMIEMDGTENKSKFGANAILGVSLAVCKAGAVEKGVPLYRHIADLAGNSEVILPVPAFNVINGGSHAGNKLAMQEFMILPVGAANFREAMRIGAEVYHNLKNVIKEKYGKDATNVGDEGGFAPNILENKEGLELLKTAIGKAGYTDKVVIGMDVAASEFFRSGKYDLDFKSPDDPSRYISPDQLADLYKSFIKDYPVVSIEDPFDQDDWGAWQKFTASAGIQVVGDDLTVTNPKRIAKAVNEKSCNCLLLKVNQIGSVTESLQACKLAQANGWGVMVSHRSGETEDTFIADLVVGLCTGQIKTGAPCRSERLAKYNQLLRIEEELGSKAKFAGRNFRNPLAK
UniProt P46934: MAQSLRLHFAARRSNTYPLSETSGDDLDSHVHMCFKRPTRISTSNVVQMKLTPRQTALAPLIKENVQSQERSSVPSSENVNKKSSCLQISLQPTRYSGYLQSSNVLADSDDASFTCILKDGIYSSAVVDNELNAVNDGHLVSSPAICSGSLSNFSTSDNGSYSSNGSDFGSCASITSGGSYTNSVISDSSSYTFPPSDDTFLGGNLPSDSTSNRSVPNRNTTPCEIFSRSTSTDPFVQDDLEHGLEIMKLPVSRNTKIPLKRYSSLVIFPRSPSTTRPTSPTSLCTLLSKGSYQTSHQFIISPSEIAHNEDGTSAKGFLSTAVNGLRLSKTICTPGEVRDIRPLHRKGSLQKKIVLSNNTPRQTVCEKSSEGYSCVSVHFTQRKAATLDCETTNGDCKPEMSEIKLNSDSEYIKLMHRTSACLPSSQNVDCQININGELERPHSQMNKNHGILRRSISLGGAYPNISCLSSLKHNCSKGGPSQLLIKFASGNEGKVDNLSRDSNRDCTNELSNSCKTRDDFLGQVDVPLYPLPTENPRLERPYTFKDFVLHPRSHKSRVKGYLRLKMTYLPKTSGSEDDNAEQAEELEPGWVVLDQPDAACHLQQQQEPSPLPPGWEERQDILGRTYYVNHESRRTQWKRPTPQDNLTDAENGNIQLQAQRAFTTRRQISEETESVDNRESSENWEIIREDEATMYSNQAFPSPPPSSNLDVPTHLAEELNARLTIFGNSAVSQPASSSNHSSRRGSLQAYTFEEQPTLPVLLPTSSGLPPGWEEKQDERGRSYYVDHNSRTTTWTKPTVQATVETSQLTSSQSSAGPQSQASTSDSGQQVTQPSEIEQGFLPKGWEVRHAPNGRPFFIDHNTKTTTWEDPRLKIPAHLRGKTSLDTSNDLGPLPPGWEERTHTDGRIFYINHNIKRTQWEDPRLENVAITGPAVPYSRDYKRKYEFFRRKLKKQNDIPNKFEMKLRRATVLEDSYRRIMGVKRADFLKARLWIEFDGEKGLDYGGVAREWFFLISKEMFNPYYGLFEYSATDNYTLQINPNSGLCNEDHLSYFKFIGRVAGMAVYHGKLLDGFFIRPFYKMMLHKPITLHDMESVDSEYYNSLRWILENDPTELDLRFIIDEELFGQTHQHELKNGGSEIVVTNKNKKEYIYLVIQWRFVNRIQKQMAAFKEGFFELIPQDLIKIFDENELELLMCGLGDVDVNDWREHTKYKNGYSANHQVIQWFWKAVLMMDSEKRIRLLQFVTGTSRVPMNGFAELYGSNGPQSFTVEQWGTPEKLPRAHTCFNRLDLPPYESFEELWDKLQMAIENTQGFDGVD

Molecular target: Enolase 1 (ENO1), endogenous in PASMCs (human (endogenous in primary human PASMCs)) (UniProt P06733)
Assay: co-IP; PASMC lysates (RIPA buffer) incubated with IP antibodies against ENO1, NEDD4, FLAG or IgG (1:50) overnight at 4 °C, protein A/G beads 6 h at 4 °C; Western blot

Substance: E3 ubiquitin ligase NEDD4 (down regulated protein 4 in neural precursor cell development) (from UniProt P46934 1-1319) (enzyme)
- binding: binds
